In paper PMC3115958:
Results are given in words; binding and its absence hold for the method and conditions named. Some entries that bind do so weakly or less than the wild type. For part of these data: Tags and fused reporters may be left off the sequences shown. Blank lines part the entries; values can stand above or below the binder they belong to.

By UniProt entry, the sequences of proteins in these tests, tags left out. Residues count along the entry.
UniProt Q6PHU5, residues 74-825: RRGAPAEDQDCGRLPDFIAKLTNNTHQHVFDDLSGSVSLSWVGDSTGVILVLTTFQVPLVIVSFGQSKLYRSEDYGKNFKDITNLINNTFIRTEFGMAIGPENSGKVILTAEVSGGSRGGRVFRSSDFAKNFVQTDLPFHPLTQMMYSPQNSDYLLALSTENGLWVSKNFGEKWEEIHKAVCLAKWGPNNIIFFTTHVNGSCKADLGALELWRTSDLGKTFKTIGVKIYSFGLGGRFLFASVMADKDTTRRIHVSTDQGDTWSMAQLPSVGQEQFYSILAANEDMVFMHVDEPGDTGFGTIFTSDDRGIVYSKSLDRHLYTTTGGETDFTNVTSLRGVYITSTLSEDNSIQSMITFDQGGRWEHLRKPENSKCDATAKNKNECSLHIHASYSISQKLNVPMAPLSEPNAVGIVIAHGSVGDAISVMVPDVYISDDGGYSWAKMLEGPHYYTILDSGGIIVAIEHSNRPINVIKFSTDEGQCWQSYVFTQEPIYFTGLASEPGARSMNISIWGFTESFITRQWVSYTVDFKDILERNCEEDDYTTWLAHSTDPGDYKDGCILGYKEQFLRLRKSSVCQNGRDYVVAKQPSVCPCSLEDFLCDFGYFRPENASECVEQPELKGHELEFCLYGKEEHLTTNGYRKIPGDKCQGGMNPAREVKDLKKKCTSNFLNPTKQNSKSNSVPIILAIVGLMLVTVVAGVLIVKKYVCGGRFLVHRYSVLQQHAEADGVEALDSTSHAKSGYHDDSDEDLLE
UniProt Q99523, residues 78-831: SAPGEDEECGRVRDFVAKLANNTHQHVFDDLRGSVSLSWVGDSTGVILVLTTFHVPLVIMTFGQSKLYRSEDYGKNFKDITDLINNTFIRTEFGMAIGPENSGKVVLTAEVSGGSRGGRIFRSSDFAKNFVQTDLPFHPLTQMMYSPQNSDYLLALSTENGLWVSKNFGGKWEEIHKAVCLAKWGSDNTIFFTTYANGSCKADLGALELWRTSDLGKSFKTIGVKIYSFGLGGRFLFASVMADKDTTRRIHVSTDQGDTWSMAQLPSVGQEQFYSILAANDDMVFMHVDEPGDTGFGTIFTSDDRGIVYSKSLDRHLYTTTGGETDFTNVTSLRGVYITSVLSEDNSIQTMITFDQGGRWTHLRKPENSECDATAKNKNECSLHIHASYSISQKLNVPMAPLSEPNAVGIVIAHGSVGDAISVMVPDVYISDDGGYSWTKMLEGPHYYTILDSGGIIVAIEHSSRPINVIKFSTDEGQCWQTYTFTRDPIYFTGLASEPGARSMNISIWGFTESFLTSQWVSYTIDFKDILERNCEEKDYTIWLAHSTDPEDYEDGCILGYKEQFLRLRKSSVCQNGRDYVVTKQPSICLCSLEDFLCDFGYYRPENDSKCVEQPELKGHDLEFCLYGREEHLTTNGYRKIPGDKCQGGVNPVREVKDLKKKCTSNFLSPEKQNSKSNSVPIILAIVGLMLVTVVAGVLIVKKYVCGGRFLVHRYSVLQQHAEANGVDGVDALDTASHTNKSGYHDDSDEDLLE

Assays:
[1] = molecular target: mouse sortilin expressed in COS-7 cells (mouse) (UniProt Q6PHU5); assay: binding of alkaline phosphatase fusion ligands to transfected cells; COS-7 cells transfected with mouse sortilin incubated with 10 or 50 nM of AP tagged mC24, mC21 or hC24
[2] = molecular target: wild type sortilin expressed in COS-7 cells (UniProt Q99523); assay: binding of alkaline phosphatase fusion ligands to transfected cells; conditioned media with AP ligands (100 nM where stated) incubated with sortilin transfected COS-7 cells 2 hrs at room temperature, fixation, heat inactivation of endogenous AP; bound AP measured with the ImageXpress system
[3] = molecular target: wild type sortilin expressed in COS-7 cells (UniProt Q99523); assay: competition of binding of alkaline phosphatase fusion ligands to transfected cells; sortilin expressing COS-7 cells incubated with 150 nM purified his-PGRN, his-PGRNΔ3aa or C18 peptide of indicated concentrations for 1 hour before adding 10 nM of AP-PGRN or AP-C24; the competitor on sortilin; only the binder purified

- binding [1]: binds
Binder: TKCLRKKIPRWDMFLRDPVPRPLL (domain or fragment, UniProt P28798 566-589) [AP tagged C24 of mouse progranulin]

- binding [2]: binds
Binder: ALRQLL (domain or fragment) [alkaline phosphatase fusion with the C-terminal 6 residues of progranulin]

- binding [3]: binds
Binder: EAPRWDAPLRDPALRQLL [C18 peptide C-terminal to the granulin E motif of progranulin]
